The subject of the test is Drosophila melanogaster DPAGT1 (Alg7) RNAi eye model. Briefly: eye size Z-score vs DMSO-treated DPAGT1 model flies; higher = larger eye (suppression of DPAGT1 phenotype). The following applies: 5 uM.

Structures can show the parent of a compound that is named as a salt. This is one part of the list. Repeats are few or missing, and single values can be far off.

Regarding `O=C(O)c1cccnc1` [Niacin], the “eye size Z-score” value turned out to be 0.89. Still for that read-out and setting: under `CCCCc1oc2ccccc2c1C(=O)c1cc(I)c(OCCN(CC)CC)c(I)c1` [Amiodarone hydrochloride] stands -1.15. `O=c1[nH]c(=O)n([C@H]2C[C@H](O)[C@@H](CO)O2)cc1I` [Idoxuridine]: the “eye size Z-score” value (female) is 1.41. As for `CCN1CCCC1CNC(=O)c1cc(S(N)(=O)=O)ccc1OC` (stereo unspecified) [Sulpiride], the “eye size Z-score” value was 1.8.

In the case of `COc1ccc(-c2ccc3cc(C(=O)O)ccc3c2)cc1C12CC3CC(CC(C3)C1)C2` [Adapalene], the “eye size Z-score” value stood at 0.83. The same measure, in the same setting: the figure for `Cc1ccc2c([nH]c(=O)c3c(=O)cc(C(=O)OCCC(C)C)oc32)c1C` [Repirinast] is -0.4. The same measure, in the same setting: the figure for `NCCc1ccc(O)c(O)c1` [Dopamine hydrochloride] is -0.18.

Take `C[C@H](CS)C(=O)N1CCC[C@H]1C(=O)O` [Captopril]: the “eye size Z-score” value is -0.49.

Take `CN(Cc1cc(Br)cc(Br)c1N)C1CCCCC1` [Bromhexine hydrochloride]: the “eye size Z-score” value was -0.05.

`CC1(C)O[C@@H]2C[C@H]3[C@@H]4C[C@H](F)C5=CC(=O)C=C[C@]5(C)[C@H]4[C@@H](O)C[C@]3(C)[C@]2(C(=O)CO)O1` [Flunisolide]: the “eye size Z-score” value was -0.05. Same read-out and setting: under `COc1ccc(CNc2nc(N3CCC[C@H]3CO)ncc2C(=O)NCc2ncccn2)cc1Cl` [Avanafil] stands 2.1; under `CC[C@H](c1ccc(O)cc1)[C@@H](CC)c1ccc(O)cc1` [Hexestrol], -0.36; under `Cc1c(Nc2ncccc2C(=O)O)cccc1C(F)(F)F` [Flunixin meglumine], -0.1. Same read-out and setting: the figure for `CC(C)(C)NC(=O)[C@H]1CC[C@H]2[C@@H]3CC[C@H]4NC(=O)C=C[C@]4(C)[C@H]3CC[C@]12C` [Finasteride] is 1.27; for `Nc1nc(N)c2nc(-c3ccccc3)c(N)nc2n1` [Triamterene] it is 1.01. In the case of `CCCCOc1ccc(C(=O)CCN2CCCCC2)cc1` [Dyclonine hydrochloride], the “eye size Z-score” value is -0.22.

Turning to `Cn1nnc2c(C(N)=O)ncn2c1=O` [Temozolomide], the “eye size Z-score” value was -0.67. Still for that read-out and setting: the figure for `CC(C)(C)CC(C)(C)c1ccc(OCCOCC[N+](C)(C)Cc2ccccc2)cc1` [Benzethonium chloride] is -0.21; for `CC(C)NCC(O)COc1cccc2[nH]ccc12` (stereo unspecified) [Pindolol] it is -0.21.

Turning to `OC(CCN1CCCC1)(c1ccccc1)C1CCCCC1` (stereo unspecified) [Procyclidine hydrochloride], the “eye size Z-score” value is -0.51. Consider `CC(CN(C)C)CN1c2ccccc2CCc2ccccc21` (stereo unspecified) [Trimipramine maleate salt], for which the “eye size Z-score” value (female) was -0.04.

For the molecule `CC(C)C(=O)c1c(C(C)C)nn2ccccc12` [Ibudilast], the “eye size Z-score” value is -0.33. The same measure, in the same setting: under `C[N+](C)(C)C[C@H](O)CC(=O)[O-]` [Levocarnitine] stands 0.4.

For the molecule `Nc1ccc(C(=O)O)c(O)c1` [Aminosalicylic acid], the “eye size Z-score” value is -0.28. Same read-out and setting: the figure for `O=C1Nc2ccc(Cl)cc2[C@@](C#CC2CC2)(C(F)(F)F)O1` [Efavirenz] is -0.64; for `O=C(O)c1ccccc1Nc1cccc(C(F)(F)F)c1` [Flufenamic acid] it is -2.33. Still for that read-out and setting: the figure for `CC[N+](C)(CC)CCC[n+]1c(-c2ccccc2)c2cc(N)ccc2c2ccc(N)cc21` [Propidium iodide] is -0.19; for `Clc1ccc(C(c2ccccc2Cl)C(Cl)Cl)cc1` (stereo unspecified) [Mitotane] it is 1.07; for `O=C1O[C@H]([C@@H](O)CO)C(O)=C1O` [Ascorbic acid] it is -0.27. Same read-out and setting: the figure for `Cc1cccc(C)c1OCC(=O)N[C@@H](Cc1ccccc1)[C@@H](O)C[C@H](Cc1ccccc1)NC(=O)[C@H](C(C)C)N1CCCNC1=O` [Lopinavir] is -0.19; for `Nc1ccc(/N=N/c2ccccc2)c(N)n1` [Phenazopyridine hydrochloride] it is 0.09. In the case of `CN(C)CCOC(=O)C(c1ccccc1)C1(O)CCCC1` (stereo unspecified) [Cyclopentolate hydrochloride], the “eye size Z-score” value is 0.85. On to `CCC(=O)O[C@]1(C(=O)SCF)[C@H](C)C[C@H]2[C@@H]3C[C@H](F)C4=CC(=O)C=C[C@]4(C)[C@@]3(F)[C@@H](O)C[C@@]21C` [Fluticasone propionate], for which the “eye size Z-score” value was found to be 0.77.

With `OCCN1CCN(CC/C=C2/c3ccccc3Sc3ccc(Cl)cc32)CC1` [Zuclopenthixol dihydrochloride], the “eye size Z-score” value is 0.02. `Nc1nc(/C(=C/CC(=O)O)C(=O)N[C@@H]2C(=O)N3C(C(=O)O)=CCS[C@H]23)cs1` [Ceftibuten]: the “eye size Z-score” value is -0.96. On the same count and under the same terms, the figure for `CCc1nn(CCCN2CCN(c3cccc(Cl)c3)CC2)c(=O)n1CCOc1ccccc1` [Nefazodone hydrochloride] is 1.27; for `O=S(=O)(c1cccc2cnccc12)N1CCCNCC1` [Fasudil Hydrochloride] it is -0.18; for `CCCNC(C)(C)COC(=O)c1ccccc1` [Meprylcaine hydrochloride] it is 0.3. Still for that read-out and setting: the figure for `C[N+](C)(CCOc1ccccc1)Cc1ccccc1.O=C([O-])c1cc2ccccc2cc1O` [Bephenium hydroxynaphthoate] is 0.63; for `CC(NCCc1ccc(O)cc1)C(O)c1ccc(O)cc1` (stereo unspecified) [Ritodrine hydrochloride] it is 0.7. Turning to `NC1CCN(c2c(F)cc3c(=O)c(C(=O)O)cn(C4CC4)c3c2Cl)C1` (stereo unspecified) [Clinafloxacin], the “eye size Z-score” value was 0.02.

As to `CCC1(C)CC(=O)NC1=O` (stereo unspecified) [Ethosuximide], the “eye size Z-score” value was -0.25. On the same count and under the same terms, under `O=[N+]([O-])c1ccc(O)c2ncccc12` [Nitroxoline] stands 0.83; under `CCCc1nn(C)c2c(=O)[nH]c(-c3cc(S(=O)(=O)N4CCN(C)CC4)ccc3OCC)nc12` [Sildenafil], -0.36.

In the case of `CCC(C)(C)C(=O)O[C@H]1C[C@@H](C)C=C2C=C[C@H](C)[C@H](CC[C@@H]3C[C@@H](O)CC(=O)O3)[C@H]21` [Simvastatin], the “eye size Z-score” value was determined as 0.14. On the same count and under the same terms, the figure for `CCOC(=O)CC(=O)N1CCSC1COc1ccccc1OC` (stereo unspecified) [Moguisteine] is 1.83; for `CC(=O)Oc1ccc(C(c2ccc(OC(C)=O)cc2)c2ccccn2)cc1` [Bisacodyl] it is -0.84. For the molecule `O=C(O)CCC(=O)c1ccc(-c2ccccc2)cc1` [Fenbufen], the “eye size Z-score” value turned out to be 0.42.

Take `CN1CCN2c3ccccc3Cc3ccccc3C2C1` (stereo unspecified) [Mianserine hydrochloride]: the “eye size Z-score” value was -0.32. Same read-out and setting: under `N[C@@H](Cc1ccc(O)c(O)c1)C(=O)O` [Levodopa] stands 1.21; under `CCCCc1ncc(/C=C(\Cc2cccs2)C(=O)O)n1Cc1ccc(C(=O)O)cc1` [Eprosartan mesylate], 1.44.

Values taken from the supplement of paper PMC11542785.
